The list shows a part of the results. Residues, ends and D or L forms follow the SMILES beside them. *: point of attachment. Cbz = O=C(OCc1ccccc1)*
Key:
Assay in all cases: log2 fold change, soluble protein after heating vs DMSO (PISA); higher = thermal stabilisation; K562 cells, 10 uM, 30 min; active = over 0.2 and 3.5 SD of the protein, either way, in both replicates (recomputed)
[1] = compound: C#Cc1cccc(Nc2ncnc3cc(OCCOC)c(OCCOC)cc23)c1 [erlotinib]
How it was run: (§1)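 Soluble protein was quantified by TMTpro 16plex LC-MS/MS after channel sums were equalised. It was obtained as the supernatant after 21,000xg for 90 min from pooled aliquots of K562 cells (2×10^6 cells/mL, 10 μM compound, 30 min) heated for 3 min across 48°C-58°C and extracted in PBS with 0.5% NP-40 at 4°C. Thermal stability values are relative to control samples and come from duplicates. They are given as log2 fold changes.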

Sequences of proteins named here, by UniProt entry; tags and fusion partners are left off. A change or cut given only in a name is not applied to a line headed by its entry.
UniProt O14713: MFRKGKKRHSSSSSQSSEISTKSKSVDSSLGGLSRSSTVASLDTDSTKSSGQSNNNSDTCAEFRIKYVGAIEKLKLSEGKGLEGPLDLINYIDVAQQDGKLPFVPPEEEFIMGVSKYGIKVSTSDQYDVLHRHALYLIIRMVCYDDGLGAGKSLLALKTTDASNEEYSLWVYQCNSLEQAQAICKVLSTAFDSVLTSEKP
UniProt O14920: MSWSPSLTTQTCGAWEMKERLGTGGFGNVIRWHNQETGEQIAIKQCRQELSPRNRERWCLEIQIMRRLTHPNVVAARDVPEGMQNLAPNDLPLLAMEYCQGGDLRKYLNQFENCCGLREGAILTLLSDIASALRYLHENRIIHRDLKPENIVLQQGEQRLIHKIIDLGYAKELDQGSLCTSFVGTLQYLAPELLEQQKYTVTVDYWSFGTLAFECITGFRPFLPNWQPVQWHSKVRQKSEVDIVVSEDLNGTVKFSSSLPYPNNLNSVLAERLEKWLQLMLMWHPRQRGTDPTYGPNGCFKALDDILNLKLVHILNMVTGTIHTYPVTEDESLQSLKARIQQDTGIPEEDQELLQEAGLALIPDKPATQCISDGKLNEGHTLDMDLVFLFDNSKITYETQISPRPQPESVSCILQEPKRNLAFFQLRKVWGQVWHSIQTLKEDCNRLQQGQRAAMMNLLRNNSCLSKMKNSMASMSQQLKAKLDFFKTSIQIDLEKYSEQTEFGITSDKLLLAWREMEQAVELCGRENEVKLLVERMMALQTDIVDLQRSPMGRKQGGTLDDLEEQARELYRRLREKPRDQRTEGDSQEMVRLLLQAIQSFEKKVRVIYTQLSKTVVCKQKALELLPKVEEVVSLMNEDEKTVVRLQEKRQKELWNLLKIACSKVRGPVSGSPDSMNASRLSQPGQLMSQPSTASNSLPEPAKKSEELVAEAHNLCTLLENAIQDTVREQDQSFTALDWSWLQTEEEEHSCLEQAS
UniProt P19827: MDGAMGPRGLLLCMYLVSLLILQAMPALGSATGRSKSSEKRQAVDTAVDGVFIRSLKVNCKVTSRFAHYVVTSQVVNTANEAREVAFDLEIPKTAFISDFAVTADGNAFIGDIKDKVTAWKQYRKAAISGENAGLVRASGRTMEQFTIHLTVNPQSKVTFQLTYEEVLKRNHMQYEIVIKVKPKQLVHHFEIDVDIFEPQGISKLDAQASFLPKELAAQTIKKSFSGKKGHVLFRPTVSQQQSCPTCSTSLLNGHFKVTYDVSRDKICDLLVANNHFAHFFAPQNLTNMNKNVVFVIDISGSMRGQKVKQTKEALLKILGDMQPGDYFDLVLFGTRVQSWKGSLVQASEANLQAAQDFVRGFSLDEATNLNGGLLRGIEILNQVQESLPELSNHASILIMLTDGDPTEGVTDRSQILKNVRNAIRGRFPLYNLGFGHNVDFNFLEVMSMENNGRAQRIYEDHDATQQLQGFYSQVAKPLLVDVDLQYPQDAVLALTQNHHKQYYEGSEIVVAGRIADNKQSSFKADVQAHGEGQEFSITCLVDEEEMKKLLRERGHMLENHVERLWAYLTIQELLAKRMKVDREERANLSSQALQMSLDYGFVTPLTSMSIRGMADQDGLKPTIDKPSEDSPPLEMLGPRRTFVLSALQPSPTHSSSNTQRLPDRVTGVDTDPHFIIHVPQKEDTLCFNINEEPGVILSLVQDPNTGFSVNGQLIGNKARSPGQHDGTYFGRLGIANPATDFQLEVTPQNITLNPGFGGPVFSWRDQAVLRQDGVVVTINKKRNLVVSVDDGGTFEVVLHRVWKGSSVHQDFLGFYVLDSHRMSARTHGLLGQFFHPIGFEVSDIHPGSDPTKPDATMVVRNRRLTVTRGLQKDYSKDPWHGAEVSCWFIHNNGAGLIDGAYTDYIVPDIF
UniProt Q9BUE6: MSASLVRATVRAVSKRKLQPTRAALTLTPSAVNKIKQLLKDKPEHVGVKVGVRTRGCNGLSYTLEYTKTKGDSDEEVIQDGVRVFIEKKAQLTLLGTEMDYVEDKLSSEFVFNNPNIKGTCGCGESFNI
UniProt P51617, whole entry, looked up: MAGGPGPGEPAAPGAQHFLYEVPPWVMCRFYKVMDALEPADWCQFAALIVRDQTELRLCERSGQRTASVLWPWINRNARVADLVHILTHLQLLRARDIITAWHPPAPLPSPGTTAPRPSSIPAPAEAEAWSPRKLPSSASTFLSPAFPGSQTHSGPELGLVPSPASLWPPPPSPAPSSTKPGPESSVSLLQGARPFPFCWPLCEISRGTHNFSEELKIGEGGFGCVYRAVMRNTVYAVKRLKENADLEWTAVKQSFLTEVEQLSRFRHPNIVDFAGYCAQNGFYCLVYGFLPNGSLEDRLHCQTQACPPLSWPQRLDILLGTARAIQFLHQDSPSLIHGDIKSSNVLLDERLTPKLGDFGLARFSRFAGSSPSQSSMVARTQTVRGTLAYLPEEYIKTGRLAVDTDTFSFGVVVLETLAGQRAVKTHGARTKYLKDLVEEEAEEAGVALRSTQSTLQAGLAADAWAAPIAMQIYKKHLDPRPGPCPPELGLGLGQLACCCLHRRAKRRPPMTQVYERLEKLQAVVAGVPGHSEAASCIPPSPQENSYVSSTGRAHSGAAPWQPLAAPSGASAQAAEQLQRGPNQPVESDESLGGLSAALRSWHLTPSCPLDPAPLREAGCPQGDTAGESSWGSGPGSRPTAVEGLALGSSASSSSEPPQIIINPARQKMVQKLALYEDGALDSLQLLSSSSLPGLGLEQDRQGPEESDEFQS
UniProt Q8NBZ0, whole entry, looked up: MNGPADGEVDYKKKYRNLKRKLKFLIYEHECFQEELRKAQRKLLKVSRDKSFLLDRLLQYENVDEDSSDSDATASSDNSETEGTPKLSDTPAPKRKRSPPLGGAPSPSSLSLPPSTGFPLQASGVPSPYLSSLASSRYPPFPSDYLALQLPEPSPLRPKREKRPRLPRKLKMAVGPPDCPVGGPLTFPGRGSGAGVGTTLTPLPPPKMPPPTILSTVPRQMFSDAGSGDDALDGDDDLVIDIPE
UniProt Q75QN2, whole entry, looked up: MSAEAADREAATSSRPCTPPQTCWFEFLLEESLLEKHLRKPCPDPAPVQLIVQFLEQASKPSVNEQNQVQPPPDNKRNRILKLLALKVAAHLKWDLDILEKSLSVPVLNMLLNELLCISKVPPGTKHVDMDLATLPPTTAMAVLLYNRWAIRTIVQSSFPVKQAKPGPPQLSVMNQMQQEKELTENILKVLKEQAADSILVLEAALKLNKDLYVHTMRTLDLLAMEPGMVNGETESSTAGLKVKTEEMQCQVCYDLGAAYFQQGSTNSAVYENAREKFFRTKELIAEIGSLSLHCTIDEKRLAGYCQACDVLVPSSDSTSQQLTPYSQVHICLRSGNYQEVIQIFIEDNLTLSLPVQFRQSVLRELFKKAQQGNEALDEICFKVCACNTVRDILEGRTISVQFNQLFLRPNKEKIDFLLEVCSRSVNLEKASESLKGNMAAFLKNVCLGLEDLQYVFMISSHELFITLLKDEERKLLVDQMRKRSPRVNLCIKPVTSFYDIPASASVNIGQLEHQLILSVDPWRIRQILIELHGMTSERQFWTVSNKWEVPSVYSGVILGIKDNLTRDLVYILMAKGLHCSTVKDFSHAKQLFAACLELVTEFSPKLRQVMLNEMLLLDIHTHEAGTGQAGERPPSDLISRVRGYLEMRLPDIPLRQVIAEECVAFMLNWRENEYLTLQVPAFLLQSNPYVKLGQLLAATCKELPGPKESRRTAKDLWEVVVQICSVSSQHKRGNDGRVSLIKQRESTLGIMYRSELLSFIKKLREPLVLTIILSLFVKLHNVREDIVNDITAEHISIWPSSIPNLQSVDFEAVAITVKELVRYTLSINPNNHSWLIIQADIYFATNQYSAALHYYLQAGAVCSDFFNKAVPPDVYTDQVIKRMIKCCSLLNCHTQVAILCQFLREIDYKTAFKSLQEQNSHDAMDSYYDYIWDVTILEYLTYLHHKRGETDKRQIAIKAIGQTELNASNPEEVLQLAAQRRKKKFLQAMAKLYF
UniProt P14316: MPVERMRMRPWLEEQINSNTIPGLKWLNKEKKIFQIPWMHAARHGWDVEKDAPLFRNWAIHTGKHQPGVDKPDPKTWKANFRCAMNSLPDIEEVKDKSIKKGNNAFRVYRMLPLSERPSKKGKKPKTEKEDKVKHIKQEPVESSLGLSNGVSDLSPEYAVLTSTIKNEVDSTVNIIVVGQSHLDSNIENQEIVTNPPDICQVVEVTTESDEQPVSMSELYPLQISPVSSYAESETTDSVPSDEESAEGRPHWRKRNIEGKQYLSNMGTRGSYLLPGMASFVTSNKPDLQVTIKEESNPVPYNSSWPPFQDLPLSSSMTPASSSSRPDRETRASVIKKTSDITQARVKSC
UniProt Q9BW83: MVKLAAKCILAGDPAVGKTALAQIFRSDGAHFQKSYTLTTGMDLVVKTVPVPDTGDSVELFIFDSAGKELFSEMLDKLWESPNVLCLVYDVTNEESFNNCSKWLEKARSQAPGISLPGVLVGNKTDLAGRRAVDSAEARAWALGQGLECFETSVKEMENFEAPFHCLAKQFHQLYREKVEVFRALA
UniProt Q9H0H0, whole entry, looked up: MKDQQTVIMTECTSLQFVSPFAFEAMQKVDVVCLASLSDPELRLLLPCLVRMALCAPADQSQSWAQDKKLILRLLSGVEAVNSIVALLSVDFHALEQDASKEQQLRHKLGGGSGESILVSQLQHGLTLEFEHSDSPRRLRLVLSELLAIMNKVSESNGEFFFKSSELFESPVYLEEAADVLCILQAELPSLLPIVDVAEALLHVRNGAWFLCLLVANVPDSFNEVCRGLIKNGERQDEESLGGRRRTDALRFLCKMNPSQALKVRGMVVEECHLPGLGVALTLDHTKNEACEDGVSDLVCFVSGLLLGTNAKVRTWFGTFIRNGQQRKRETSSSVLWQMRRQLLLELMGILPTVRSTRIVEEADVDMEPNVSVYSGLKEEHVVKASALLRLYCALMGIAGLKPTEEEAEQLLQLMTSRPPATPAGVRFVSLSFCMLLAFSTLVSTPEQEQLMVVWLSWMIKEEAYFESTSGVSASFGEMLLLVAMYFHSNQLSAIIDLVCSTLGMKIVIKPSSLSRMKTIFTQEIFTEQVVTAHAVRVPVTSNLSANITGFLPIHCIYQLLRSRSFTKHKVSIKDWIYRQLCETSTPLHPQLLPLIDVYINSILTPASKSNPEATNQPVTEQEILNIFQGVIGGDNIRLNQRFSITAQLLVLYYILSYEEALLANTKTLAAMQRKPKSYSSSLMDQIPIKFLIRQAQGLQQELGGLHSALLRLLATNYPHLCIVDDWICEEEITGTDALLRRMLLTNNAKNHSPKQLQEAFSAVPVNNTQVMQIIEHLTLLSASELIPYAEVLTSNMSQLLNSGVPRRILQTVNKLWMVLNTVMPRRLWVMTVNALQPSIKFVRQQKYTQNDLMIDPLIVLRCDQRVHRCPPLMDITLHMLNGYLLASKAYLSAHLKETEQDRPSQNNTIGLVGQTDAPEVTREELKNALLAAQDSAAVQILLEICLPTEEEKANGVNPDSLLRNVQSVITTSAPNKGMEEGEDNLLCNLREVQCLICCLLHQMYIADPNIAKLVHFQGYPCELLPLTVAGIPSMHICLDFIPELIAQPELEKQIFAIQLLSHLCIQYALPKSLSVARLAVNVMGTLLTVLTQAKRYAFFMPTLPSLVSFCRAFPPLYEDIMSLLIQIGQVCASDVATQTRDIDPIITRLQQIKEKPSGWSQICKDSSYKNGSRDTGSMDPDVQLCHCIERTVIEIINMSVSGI

[2] = compound: C/C(=N\NC(=O)C1=CC(=CC=C1)S(=O)(=O)N2CCOCC2)/C3=C(C=CC(=C3)Cl)O
How it was run: as §1

[3] = compound: C1=CC(=C(C=C1Cl)C2=NC3=NC=CN=C3C(=N2)NC4=CC=NC=C4)F
How it was run: as §1

[4] = compound: C1=CC(=CC=C1C2=NC3=C(N2)C=C(C=C3)C(=O)N)OC4=CC=C(C=C4)Cl
How it was run: as §1

[5] = compound: C1=CC2=C(C=CC(=C2)/C=C\3/C(=O)NC(=NCC4=CC=CS4)S3)N=C1
How it was run: as §1

[6] = compound: C1=CC2=NC=CN=C2C=C1/C=C/3\C(=O)NC(=O)S3
How it was run: as §1

[7] = compound: C1=CC=C(C=C1)C2=NC(=C(N2)C3=CC=NC=C3)C4=CC(=C(C=C4)Cl)O
How it was run: as §1

[8] = compound: C1=CC=C2C(=C1)C3=NNC4=CC=CC(=C43)C2=O
How it was run: as §1

[9] = compound: C1CCN(C1)C(=O)NC2=CC=CC(=C2)NC3=NC=C(C(=N3)NCCC4=CN=CN4)Br
How it was run: as §1

[10] = compound: C1CN(CCC1(CC2=CC=C(C=C2)Cl)N)C3=NC=NC4=C3C=CN4
How it was run: as §1

[11] = compound: C1COCCN1CCN2C3=CC=CC=C3N=C2NC(=O)C4=CC(=CC=C4)[N+](=O)[O-] [IRAK-1-4 Inhibitor I]
How it was run: as §1

[12] = compound: C=CC(=O)N1CCC[C@@H](n2nc(-c3ccc(Oc4ccccc4)cc3)c3c(N)ncnc32)C1 [ibrutinib]
How it was run: as §1

[13] = compound: CC(=O)c1cnc2ccc(-c3cc(Cl)c(O)c(Cl)c3)nc2c1N[C@H]1CC[C@H](CN(C)C)CC1
How it was run: as §1

[14] = compound: CC(C)(C)Cn1c(N)nc2ccc(-c3[nH]c(C(C)(C)C)nc3-c3ccc(F)cc3)nc21 [ralimetinib]
How it was run: as §1

[15] = compound: CC(C)(O)CC(=O)NCCn1ccc2ncnc(Nc3ccc(Oc4cccc(C(F)(F)F)c4)c(Cl)c3)c21
How it was run: as §1

[16] = compound: CC(C)C1=C2N=C(C=C(N2N=C1)NCC3=CC=CC=C3)NCCCCCCN
How it was run: as §1

[17] = compound: CC(C)C[C@@H](C=O)NC(=O)[C@H](CC(C)C)NC(=O)[C@H](CC(C)C)NC(=O)OCc1ccccc1
How it was run: as §1

[18] = compound: CC(C)N(C[C@H]1O[C@@H](n2cnc3c(N)ncnc32)[C@H](O)[C@@H]1O)[C@H]1C[C@@H](CCc2nc3cc(C(C)(C)C)ccc3[nH]2)C1 [pinometostat]
How it was run: as §1

[19] = compound: CC1=C(C2=C(C=C1)C(=O)C3=CC=CC=C3N2CCCN)C
How it was run: as §1

[20] = compound: CC1=C(C(CC(=O)N1)C2=CC=C(C=C2)C(F)(F)F)C(=O)NC3=C(C=C4C(=C3)C=NN4)F
How it was run: as §1

Row | Target | log2 fold change [1] | log2 fold change [2] | log2 fold change [3] | log2 fold change [4] | log2 fold change [5] | log2 fold change [6] | log2 fold change [7] | log2 fold change [8] | log2 fold change [9] | log2 fold change [10] | log2 fold change [11] | log2 fold change [12] | log2 fold change [13] | log2 fold change [14] | log2 fold change [15] | log2 fold change [16] | log2 fold change [17] | log2 fold change [18] | log2 fold change [19] | log2 fold change [20]
1 | IPO9 (UniProt Q96P70) | inactive: -0.021 | inactive: 0.073 | inactive: 0.01 | inactive: -0.061 | inactive: 0.023 | inactive: 0.096 | inactive: -0.035 | inactive: -0.024 | inactive: -0.02 | inactive: 0.052 | inactive: 0.024 | inactive: -0.082 | inactive: 0.113 | inactive: 0.01 | inactive: -0.079 | inactive: -0.039 | inactive: -0.068 | inactive: 0.012 | active: 0.447 | 
2 | ITGB1BP1 (UniProt O14713) | inactive: -0.032 |  | inactive: -0.003 | inactive: 0.016 |  | inactive: 0.044 | inactive: 0.074 |  | inactive: 0.022 | inactive: 0.109 |  | inactive: -0.125 |  | inactive: -0.05 | inactive: -0.167 | inactive: -0.229 | inactive: 0.017 |  | inactive: -0.017 | 
3 | IKBKB (UniProt O14920) | inactive: -0.159 |  | inactive: -0.394 | inactive: 0.109 |  | inactive: -0.092 | inactive: 0.08 |  | inactive: -0.021 | inactive: -0.178 | inactive: -0.318 | inactive: -0.01 |  | inactive: 0.231 | inactive: 0.017 | inactive: -0.102 | inactive: 0.233 | inactive: 0.332 | inactive: -0.118 | inactive: 0.141
4 | ITIH1 (UniProt P19827) | inactive: -0.047 | inactive: -0.266 |  | inactive: 0.049 | inactive: 0.355 |  |  | inactive: -0.418 |  |  |  |  | inactive: 0.134 |  |  | inactive: -0.011 |  |  |  | 
5 | ISCA1 isoform 2 (UniProt Q9BUE6) | inactive: 0.06 | inactive: -0.194 | inactive: -0.077 | inactive: 0.077 | inactive: 0.023 | inactive: 0.043 |  | inactive: -0.022 | inactive: -0.06 | inactive: -0.022 | inactive: 0.104 | inactive: 0.011 | inactive: -0.01 |  | inactive: 0.015 | inactive: -0.016 |  | inactive: -0.065 | inactive: 0.066 | inactive: 0.071
6 | IRAK1 (UniProt P51617) | inactive: 0.162 |  | inactive: -0.224 | inactive: -0.177 |  | inactive: 0.037 | inactive: -0.07 |  |  |  | inactive: 0.078 | inactive: -0.048 |  | inactive: 0.194 | inactive: -0.33 | inactive: -0.319 | inactive: -0.007 | inactive: 0.141 |  | inactive: 0.009
7 | INO80E (UniProt Q8NBZ0) | inactive: 0.114 | inactive: -0.183 |  | inactive: -0.138 | inactive: -0.076 | inactive: 0.015 | inactive: 0.072 | inactive: 0.022 | inactive: -0.087 | inactive: 0.037 | inactive: -0.035 | inactive: -0.107 | inactive: -0.096 | inactive: -0.015 |  | inactive: -0.131 | inactive: 0.082 | inactive: 0.064 | inactive: -0.065 | 
8 | INTS8 (UniProt Q75QN2) | inactive: 0.04 | inactive: -0.008 |  | inactive: -0.046 | inactive: 0.137 | inactive: 0.02 | inactive: -0.033 | inactive: -0.033 | inactive: -0.144 | inactive: -0.035 | inactive: 0.067 | inactive: 0.131 | inactive: -0.063 | inactive: 0.023 |  | inactive: -0.112 | inactive: 0.029 | inactive: 0.052 | inactive: -0.035 | inactive: 0
9 | IRF2 (UniProt P14316) | inactive: 0.047 | inactive: 0.146 |  | inactive: 0.002 | inactive: -0.203 | inactive: 0.068 | inactive: 0.067 | inactive: -0.024 | inactive: -0.041 | inactive: 0.05 | inactive: 0.125 | inactive: -0.017 | inactive: -0.049 | inactive: -0.015 |  | inactive: 0.094 | inactive: 0.008 | inactive: -0.072 | inactive: -0.139 | inactive: -0.076
10 | IFT27 (UniProt Q9BW83) | inactive: -0.018 | inactive: 0.161 |  | inactive: -0.021 | inactive: -0.264 |  |  | inactive: 0.058 |  |  |  |  | inactive: -0.238 |  |  | inactive: 0.016 |  |  |  | 
11 | INTS2 (UniProt Q9H0H0) | inactive: -0.001 | inactive: -0.384 | inactive: 0.179 | inactive: -0.011 | inactive: 0.407 |  | inactive: -0.11 | inactive: 0.028 | inactive: -0.014 | inactive: -0.043 | inactive: 0.024 |  | inactive: -0.125 | inactive: 0.051 | inactive: -0.153 | inactive: -0.051 | inactive: 0.054 | inactive: 0.045 | inactive: -0.076 | 

Rewritten as tab-separated lines: entries from further up
Row	Target	log2 fold change [1]	log2 fold change [2]	log2 fold change [3]	log2 fold change [4]	log2 fold change [5]	log2 fold change [6]	log2 fold change [7]	log2 fold change [8]	log2 fold change [9]	log2 fold change [10]	log2 fold change [11]	log2 fold change [12]	log2 fold change [13]	log2 fold change [14]	log2 fold change [15]	log2 fold change [16]	log2 fold change [17]	log2 fold change [18]	log2 fold change [19]	log2 fold change [20]
4	ITIH1 (UniProt P19827)	inactive: -0.047	inactive: -0.266		inactive: 0.049	inactive: 0.355			inactive: -0.418					inactive: 0.134			inactive: -0.011				
9	IRF2 (UniProt P14316)	inactive: 0.047	inactive: 0.146		inactive: 0.002	inactive: -0.203	inactive: 0.068	inactive: 0.067	inactive: -0.024	inactive: -0.041	inactive: 0.05	inactive: 0.125	inactive: -0.017	inactive: -0.049	inactive: -0.015		inactive: 0.094	inactive: 0.008	inactive: -0.072	inactive: -0.139	inactive: -0.076
